Laboratory results from publication PMC5414174, “DNA replication licensing factor Cdc6 and Plk4 kinase antagonistically regulate centrosome duplication via Sas-6” (Nature Communications, 2017).
These are yes or no findings as the source states them, for the method shown. In cells and extracts the contact can be indirect. Some entries that bind do so weakly or less than the wild type. For some assays here: Sequences can lack the tags named with a protein.

Experiments:
[1] = molecular target: T1, GFP-tagged Plk4 WT (human) (UniProt O00444); assay: condition: only cells synchronized to the G1/S transition or G2 phase; co-IP; HEK293 cells co-transfected with GFP-Plk4 and Myc-Cdc6, synchronized to the G1/S transition or G2 phase; IP with GFP antibody
T1 sequence: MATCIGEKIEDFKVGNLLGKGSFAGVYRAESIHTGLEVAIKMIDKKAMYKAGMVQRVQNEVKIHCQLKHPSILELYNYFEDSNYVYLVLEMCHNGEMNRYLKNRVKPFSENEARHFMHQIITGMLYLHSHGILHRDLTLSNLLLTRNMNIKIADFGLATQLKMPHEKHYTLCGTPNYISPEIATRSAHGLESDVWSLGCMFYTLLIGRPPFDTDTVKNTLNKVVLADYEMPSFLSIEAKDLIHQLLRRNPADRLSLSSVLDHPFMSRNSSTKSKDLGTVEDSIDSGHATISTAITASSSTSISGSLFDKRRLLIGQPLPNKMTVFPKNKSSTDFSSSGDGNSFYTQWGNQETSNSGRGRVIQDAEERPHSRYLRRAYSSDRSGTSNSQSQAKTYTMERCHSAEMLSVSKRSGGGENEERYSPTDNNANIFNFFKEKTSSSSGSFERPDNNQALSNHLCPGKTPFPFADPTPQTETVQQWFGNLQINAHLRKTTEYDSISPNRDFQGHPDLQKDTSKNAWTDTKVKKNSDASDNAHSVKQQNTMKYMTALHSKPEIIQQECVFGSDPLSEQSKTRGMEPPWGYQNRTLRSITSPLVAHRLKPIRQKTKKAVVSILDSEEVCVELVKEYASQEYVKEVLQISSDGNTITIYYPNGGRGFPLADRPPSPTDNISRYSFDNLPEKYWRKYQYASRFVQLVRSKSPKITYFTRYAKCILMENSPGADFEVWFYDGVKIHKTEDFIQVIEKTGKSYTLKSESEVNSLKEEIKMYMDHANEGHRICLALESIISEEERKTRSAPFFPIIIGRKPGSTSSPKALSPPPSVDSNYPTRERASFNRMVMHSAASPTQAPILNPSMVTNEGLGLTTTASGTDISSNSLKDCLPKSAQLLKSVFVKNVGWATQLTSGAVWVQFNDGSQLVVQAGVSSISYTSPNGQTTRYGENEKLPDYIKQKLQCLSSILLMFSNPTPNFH

[2] = molecular target: T2, GFP-tagged Plk4 K41M (human) (UniProt O00444); assay: co-IP; co-transfected HEK293 cells, total cell extract, IP with GFP antibody on protein A Sepharose, 20 mM Tris, 125 mM NaCl, 0.5% NP-40, pH 7.5, 2 h at 4 °C; western blot with Myc and GFP antibodies; in Fig. 4d cells released into S phase
T2 sequence: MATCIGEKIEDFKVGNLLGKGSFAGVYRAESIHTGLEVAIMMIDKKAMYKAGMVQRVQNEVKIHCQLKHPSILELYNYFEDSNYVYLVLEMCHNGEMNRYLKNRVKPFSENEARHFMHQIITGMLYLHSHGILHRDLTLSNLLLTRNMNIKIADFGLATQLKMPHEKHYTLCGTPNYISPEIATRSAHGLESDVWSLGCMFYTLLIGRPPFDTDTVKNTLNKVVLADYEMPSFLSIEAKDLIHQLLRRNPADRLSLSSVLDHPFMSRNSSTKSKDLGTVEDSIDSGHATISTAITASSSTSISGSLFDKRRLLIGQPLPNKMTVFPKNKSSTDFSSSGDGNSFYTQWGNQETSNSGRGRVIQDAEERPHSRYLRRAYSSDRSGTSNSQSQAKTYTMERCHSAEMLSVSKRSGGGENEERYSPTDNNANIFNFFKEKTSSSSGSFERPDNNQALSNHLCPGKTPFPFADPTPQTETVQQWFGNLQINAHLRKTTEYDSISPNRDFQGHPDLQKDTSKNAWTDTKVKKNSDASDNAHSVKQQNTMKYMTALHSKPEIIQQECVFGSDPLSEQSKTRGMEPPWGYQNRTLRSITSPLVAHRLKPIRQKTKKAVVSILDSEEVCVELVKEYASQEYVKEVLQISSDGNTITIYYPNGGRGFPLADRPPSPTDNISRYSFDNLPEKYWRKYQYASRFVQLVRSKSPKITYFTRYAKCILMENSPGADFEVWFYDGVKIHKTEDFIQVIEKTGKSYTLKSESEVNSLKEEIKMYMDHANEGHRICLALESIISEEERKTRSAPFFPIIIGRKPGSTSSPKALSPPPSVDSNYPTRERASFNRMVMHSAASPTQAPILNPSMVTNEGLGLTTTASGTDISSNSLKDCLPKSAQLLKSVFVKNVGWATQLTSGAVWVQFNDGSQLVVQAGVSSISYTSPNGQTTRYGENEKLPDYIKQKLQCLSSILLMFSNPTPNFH

[3] = molecular target: T1, GFP-tagged Plk4 WT (human); assay: as above
GFP-tagged Sas-6 (human) = molecular target: T3, GFP-tagged Sas-6 (human) (UniProt Q6UVJ0); assay: as above
T3 sequence: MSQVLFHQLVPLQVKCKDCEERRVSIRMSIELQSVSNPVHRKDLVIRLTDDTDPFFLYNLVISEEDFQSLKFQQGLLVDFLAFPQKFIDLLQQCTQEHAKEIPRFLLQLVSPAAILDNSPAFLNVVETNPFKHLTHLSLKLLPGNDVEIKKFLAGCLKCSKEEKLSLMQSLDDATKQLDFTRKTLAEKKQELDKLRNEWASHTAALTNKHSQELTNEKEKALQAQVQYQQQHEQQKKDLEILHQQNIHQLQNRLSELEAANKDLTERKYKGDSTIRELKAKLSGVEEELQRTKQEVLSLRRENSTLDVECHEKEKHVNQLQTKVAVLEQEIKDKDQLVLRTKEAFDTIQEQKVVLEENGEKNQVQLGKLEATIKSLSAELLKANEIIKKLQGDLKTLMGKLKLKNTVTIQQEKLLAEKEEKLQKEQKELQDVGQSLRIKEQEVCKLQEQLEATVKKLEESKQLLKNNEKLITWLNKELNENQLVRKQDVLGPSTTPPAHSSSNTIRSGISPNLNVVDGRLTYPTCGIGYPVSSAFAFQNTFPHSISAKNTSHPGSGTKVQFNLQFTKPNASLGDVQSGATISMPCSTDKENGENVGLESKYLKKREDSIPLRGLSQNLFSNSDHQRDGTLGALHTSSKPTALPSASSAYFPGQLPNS

[4] = molecular target: T4, Plk4 (pull-down assay of Supplementary Fig. 4b) (human) (UniProt O00444); assay: pull-down; pull-down assay of Supplementary Fig. 4b; format not given
T4 sequence: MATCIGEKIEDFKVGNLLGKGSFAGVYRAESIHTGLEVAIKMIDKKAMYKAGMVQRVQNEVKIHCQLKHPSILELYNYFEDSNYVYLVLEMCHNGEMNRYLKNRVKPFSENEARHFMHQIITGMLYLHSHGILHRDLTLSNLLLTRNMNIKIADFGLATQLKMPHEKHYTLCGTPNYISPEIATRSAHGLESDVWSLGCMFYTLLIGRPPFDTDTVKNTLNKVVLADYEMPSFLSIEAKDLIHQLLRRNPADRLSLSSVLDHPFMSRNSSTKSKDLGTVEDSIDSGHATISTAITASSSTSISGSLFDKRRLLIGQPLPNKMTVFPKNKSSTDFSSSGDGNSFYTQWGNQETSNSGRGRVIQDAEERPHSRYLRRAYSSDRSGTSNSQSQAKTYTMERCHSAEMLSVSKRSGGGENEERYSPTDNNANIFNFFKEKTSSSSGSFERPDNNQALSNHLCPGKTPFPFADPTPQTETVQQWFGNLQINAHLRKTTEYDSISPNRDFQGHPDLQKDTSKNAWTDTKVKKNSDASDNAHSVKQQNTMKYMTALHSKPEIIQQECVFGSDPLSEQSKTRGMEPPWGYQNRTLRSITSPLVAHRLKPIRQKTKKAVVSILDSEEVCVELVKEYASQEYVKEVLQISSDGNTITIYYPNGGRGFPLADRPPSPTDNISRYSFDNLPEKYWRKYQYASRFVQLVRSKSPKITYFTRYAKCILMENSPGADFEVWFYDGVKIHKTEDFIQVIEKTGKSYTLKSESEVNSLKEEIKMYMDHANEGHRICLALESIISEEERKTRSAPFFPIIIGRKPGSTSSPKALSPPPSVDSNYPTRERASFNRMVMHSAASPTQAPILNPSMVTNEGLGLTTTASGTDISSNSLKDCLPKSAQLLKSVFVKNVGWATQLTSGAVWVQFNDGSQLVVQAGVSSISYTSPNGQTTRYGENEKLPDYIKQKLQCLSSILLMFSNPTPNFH

B1: Myc-tagged Cdc6 (protein, UniProt Q99741 1-560)
chain: MPQTRSQAQATISFPKRKLSRALNKAKNSSDAKLEPTNVQTVTCSPRVKALPLSPRKRLGDDNLCNTPHLPPCSPPKQGKKENGPPHSHTLKGRRLVFDNQLTIKSPSKRELAKVHQNKILSSVRKSQEITTNSEQRCPLKKESACVRLFKQEGTCYQQAKLVLNTAVPDRLPAREREMDVIRNFLREHICGKKAGSLYLSGAPGTGKTACLSRILQDLKKELKGFKTIMLNCMSLRTAQAVFPAIAQEICQEEVSRPAGKDMMRKLEKHMTAEKGPMIVLVLDEMDQLDSKGQDVLYTLFEWPWLSNSHLVLIGIANTLDLTDRILPRLQAREKCKPQLLNFPPYTRNQIVTILQDRLNQVSRDQVLDNAAVQFCARKVSAVSGDVRKALDVCRRAIEIVESDVKSQTILKPLSECKSPSEPLIPKRVGLIHISQVISEVDGNRMTLSQEGAQDSFPLQQKILVCSLMLLIRQLKIKEVTLGKLYEAYSKVCRKQQVAAVDQSECLSLSGLLEARGILGLKRNKETRLTKVFFKIEEKEIEHALKDKALIGNILATGLP
With B1 the binding [1] was “no binding”, the binding [2] was “no binding” and the binding [3] was “binds”. The binding (GFP-tagged Sas-6 (human)) was “binds”.

B2: Cdc6 (pull-down assay of Supplementary Fig. 4b) (protein, UniProt Q99741 1-560)
chain: MPQTRSQAQATISFPKRKLSRALNKAKNSSDAKLEPTNVQTVTCSPRVKALPLSPRKRLGDDNLCNTPHLPPCSPPKQGKKENGPPHSHTLKGRRLVFDNQLTIKSPSKRELAKVHQNKILSSVRKSQEITTNSEQRCPLKKESACVRLFKQEGTCYQQAKLVLNTAVPDRLPAREREMDVIRNFLREHICGKKAGSLYLSGAPGTGKTACLSRILQDLKKELKGFKTIMLNCMSLRTAQAVFPAIAQEICQEEVSRPAGKDMMRKLEKHMTAEKGPMIVLVLDEMDQLDSKGQDVLYTLFEWPWLSNSHLVLIGIANTLDLTDRILPRLQAREKCKPQLLNFPPYTRNQIVTILQDRLNQVSRDQVLDNAAVQFCARKVSAVSGDVRKALDVCRRAIEIVESDVKSQTILKPLSECKSPSEPLIPKRVGLIHISQVISEVDGNRMTLSQEGAQDSFPLQQKILVCSLMLLIRQLKIKEVTLGKLYEAYSKVCRKQQVAAVDQSECLSLSGLLEARGILGLKRNKETRLTKVFFKIEEKEIEHALKDKALIGNILATGLP
With B2 the binding [4] was “binds”.
